Assay results from paper PMC5727232, “Structural basis for genome wide recognition of 5-bp GC motifs by SMAD transcription factors”.
These are yes or no findings as the source states them, for the method shown.

The chains behind the UniProt entries cited, without tags or fusion partners. Residues count along the entry.
UniProt Q13485, residues 10-140: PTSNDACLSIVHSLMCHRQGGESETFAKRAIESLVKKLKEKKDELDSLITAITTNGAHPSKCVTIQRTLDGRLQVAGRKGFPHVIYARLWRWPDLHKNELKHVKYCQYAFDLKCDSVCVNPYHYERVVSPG

Legend:
[1] = biological target: human Smad4 MH1 domain (Pro10-Gly140) (human) (UniProt Q13485); assay: NMR 15N backbone relaxation (T1, T2, rotational correlation time); Smad4 MH1 without DNA, 15N relaxation data at two protein concentrations; correlation time 9.5 ns; both purified
[2] = biological target: human Smad4 MH1 domain (Pro10-Gly140) (human) (UniProt Q13485); assay: SAXS; Smad4 MH1 without DNA, 0.5-4.2 mg/mL, 20 mM Tris pH 7.2, 150 mM NaCl, 10 °C, ESRF BM29; both purified

Question: Which results are given for “human Smad4 MH1 domain (Pro10-Gly140) (from UniProt Q13485 10-140) (domain or fragment)”?
Answer: binding [1]: no binding; binding [2]: no binding (tested: 0.5 to 4.2 mg mL^−1)
